{"source": "paper PMC9898070", "biological_target": "GST-tagged HIF-1α truncation: N-terminal region containing HLH (human)", "experiment": "pull-down; GST-tagged HIF-1α truncations from E. coli on Glutathione Sepharose, incubated with 293T cell lysates containing HA-L3MBTL3 at 4 °C for 6 h; only the target purified", "note": "Results are given in words; binding and its absence hold for the method and conditions named. In cells and extracts the contact can be indirect. Binding can be weak; no strength is given. Where a sequence is shown, tags or fusion partners need not be part of it."}
{"binder": "HA-L3MBTL3 (protein, UniProt Q96JM7 1-780) MTESASSTSGQEFDVFSVMDWKDGVGTLPGSDLKFRVNEFGALEVITDENEMENVKKATATTTWMVPTAQEAPTSPPSSRPVFPPAYWTSPPGCPTVFSEKTGMPFRLKDPVKVEGLQFCENCCQYGNVDECLSGGNYCSQNCARHIKDKDQKEERDVEEDNEEEDPKCSRKKKPKLSLKADTKEDGEERDDEMENKQDVRILRGSQRARRKRRGDSAVLKQGLPPKGKKAWCWASYLEEEKAVAVPAKLFKEHQSFPYNKNGFKVGMKLEGVDPEHQSVYCVLTVAEVCGYRIKLHFDGYSDCYDFWVNADALDIHPVGWCEKTGHKLHPPKGYKEEEFNWQTYLKTCKAQAAPKSLFENQNITVIPSGFRVGMKLEAVDKKNPSFICVATVTDMVDNRFLVHFDNWDESYDYWCEASSPHIHPVGWCKEHRRTLITPPGYPNVKHFSWDKYLEETNSLPAPARAFKVKPPHGFQKKMKLEVVDKRNPMFIRVATVADTDDHRVKVHFDGWNNCYDYWIDADSPDIHPVGWCSKTGHPLQPPLSPLELMEASEHGGCSTPGCKGIGHFKRARHLGPHSAANCPYSEINLNKDRIFPDRLSGEMPPASPSFPRNKRTDANESSSSPEIRDQHADDVKEDFEERTESEMRTSHEARGAREEPTVQQAQRRSAVFLSFKSPIPCLPLRWEQQSKLLPTVAGIPASKVSKWSTDEVSEFIQSLPGCEEHGKVFKDEQIDGEAFLLMTQTDIVKIMSIKLGPALKIFNSILMFKAAEKNSHNEL", "values": [{"measurement": "binding", "value": "binds"}]}
